# The other results are listed elsewhere or left out. Small differences around the control level are noise.
# Chains of the proteins cited; added tags and fusions are not shown. Lines headed by an entry give the natural chain unless they say otherwise; changes in a name come on top.
# UniProt O08908: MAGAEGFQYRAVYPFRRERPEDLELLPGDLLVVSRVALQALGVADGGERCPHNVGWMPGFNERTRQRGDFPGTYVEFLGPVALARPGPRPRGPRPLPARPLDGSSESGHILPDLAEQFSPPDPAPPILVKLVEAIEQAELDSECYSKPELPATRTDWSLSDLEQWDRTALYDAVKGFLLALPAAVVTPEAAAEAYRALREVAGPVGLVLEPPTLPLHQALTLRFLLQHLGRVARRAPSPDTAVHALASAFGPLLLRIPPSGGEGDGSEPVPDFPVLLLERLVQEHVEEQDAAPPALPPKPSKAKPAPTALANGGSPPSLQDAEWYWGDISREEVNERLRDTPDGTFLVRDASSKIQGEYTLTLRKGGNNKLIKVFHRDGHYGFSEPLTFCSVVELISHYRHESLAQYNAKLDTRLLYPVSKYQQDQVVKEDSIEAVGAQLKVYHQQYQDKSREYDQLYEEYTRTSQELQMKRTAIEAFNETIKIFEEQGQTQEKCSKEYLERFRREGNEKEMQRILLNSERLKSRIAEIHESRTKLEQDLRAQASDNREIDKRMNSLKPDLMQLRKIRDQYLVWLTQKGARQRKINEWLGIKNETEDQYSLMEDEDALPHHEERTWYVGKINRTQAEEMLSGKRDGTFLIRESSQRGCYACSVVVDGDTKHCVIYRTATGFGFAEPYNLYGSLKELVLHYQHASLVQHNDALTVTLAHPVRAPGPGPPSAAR
# UniProt E9Q557: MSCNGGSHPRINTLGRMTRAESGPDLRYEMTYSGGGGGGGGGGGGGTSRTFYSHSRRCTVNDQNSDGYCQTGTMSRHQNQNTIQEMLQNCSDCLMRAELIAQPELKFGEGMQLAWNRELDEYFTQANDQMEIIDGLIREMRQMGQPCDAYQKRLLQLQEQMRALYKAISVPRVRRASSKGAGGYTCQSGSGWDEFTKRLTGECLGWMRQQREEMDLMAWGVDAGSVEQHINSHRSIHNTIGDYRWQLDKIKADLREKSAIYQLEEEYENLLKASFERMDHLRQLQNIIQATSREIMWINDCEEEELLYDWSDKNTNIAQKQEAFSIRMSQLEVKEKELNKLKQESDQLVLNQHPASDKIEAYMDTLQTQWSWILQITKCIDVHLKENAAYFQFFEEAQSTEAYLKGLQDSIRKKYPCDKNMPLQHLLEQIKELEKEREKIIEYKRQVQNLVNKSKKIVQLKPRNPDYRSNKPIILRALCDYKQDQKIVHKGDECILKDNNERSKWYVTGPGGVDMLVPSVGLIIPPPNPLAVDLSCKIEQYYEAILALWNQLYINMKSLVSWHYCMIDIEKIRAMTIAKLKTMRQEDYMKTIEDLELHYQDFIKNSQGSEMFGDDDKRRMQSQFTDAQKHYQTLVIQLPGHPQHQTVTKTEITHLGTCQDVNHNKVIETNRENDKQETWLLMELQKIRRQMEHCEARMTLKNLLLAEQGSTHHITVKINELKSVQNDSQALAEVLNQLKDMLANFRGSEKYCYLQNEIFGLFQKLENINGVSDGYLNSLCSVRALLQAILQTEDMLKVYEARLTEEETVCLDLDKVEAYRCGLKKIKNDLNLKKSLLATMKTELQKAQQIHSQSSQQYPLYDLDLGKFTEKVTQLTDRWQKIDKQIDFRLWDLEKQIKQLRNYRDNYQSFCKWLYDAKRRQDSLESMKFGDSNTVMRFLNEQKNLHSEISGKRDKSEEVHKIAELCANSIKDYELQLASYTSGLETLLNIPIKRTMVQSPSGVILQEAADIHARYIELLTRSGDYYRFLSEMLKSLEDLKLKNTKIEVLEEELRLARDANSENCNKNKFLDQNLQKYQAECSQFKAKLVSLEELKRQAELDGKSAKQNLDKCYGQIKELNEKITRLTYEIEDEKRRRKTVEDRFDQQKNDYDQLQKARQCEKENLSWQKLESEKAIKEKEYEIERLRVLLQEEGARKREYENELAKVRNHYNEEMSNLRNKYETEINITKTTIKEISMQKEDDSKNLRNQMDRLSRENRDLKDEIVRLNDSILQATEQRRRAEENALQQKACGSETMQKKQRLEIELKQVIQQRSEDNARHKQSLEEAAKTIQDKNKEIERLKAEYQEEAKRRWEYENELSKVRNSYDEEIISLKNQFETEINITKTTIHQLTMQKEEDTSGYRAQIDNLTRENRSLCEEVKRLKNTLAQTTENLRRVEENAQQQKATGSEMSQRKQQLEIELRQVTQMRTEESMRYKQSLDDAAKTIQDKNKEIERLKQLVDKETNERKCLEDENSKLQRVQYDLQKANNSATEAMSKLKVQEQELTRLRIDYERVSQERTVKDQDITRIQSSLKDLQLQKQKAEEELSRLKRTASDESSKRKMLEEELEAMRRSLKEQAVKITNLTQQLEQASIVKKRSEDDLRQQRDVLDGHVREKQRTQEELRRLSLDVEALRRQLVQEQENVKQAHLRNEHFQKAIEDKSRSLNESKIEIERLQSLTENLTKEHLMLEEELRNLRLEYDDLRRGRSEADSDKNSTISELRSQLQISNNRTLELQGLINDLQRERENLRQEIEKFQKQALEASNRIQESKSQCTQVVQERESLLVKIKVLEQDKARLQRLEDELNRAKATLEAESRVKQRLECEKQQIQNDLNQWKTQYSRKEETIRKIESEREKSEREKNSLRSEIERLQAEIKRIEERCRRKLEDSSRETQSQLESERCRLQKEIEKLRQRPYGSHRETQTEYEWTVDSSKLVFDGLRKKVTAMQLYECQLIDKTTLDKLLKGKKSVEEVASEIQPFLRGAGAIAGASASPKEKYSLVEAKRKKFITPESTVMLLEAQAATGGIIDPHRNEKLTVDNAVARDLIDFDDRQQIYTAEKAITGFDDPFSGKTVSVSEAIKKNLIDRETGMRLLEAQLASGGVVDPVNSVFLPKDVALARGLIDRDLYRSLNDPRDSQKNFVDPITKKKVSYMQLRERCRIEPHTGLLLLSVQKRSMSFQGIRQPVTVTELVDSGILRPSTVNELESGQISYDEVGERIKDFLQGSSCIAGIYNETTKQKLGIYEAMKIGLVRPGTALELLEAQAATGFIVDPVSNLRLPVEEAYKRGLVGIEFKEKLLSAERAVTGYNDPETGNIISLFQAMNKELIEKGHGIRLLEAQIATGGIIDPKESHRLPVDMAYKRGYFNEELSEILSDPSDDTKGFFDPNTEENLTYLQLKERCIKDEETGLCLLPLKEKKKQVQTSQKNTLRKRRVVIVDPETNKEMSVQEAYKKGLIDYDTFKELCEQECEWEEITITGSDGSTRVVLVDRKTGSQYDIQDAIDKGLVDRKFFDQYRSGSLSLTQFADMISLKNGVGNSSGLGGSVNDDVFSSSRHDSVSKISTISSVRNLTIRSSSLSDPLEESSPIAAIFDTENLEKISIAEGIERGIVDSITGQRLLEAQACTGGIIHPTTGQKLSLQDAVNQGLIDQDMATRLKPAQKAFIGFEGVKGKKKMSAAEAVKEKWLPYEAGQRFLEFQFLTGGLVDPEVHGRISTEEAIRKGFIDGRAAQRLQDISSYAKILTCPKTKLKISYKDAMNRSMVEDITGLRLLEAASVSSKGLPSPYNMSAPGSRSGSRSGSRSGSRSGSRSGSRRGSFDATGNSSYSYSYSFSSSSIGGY
# UniProt G5E8Q8: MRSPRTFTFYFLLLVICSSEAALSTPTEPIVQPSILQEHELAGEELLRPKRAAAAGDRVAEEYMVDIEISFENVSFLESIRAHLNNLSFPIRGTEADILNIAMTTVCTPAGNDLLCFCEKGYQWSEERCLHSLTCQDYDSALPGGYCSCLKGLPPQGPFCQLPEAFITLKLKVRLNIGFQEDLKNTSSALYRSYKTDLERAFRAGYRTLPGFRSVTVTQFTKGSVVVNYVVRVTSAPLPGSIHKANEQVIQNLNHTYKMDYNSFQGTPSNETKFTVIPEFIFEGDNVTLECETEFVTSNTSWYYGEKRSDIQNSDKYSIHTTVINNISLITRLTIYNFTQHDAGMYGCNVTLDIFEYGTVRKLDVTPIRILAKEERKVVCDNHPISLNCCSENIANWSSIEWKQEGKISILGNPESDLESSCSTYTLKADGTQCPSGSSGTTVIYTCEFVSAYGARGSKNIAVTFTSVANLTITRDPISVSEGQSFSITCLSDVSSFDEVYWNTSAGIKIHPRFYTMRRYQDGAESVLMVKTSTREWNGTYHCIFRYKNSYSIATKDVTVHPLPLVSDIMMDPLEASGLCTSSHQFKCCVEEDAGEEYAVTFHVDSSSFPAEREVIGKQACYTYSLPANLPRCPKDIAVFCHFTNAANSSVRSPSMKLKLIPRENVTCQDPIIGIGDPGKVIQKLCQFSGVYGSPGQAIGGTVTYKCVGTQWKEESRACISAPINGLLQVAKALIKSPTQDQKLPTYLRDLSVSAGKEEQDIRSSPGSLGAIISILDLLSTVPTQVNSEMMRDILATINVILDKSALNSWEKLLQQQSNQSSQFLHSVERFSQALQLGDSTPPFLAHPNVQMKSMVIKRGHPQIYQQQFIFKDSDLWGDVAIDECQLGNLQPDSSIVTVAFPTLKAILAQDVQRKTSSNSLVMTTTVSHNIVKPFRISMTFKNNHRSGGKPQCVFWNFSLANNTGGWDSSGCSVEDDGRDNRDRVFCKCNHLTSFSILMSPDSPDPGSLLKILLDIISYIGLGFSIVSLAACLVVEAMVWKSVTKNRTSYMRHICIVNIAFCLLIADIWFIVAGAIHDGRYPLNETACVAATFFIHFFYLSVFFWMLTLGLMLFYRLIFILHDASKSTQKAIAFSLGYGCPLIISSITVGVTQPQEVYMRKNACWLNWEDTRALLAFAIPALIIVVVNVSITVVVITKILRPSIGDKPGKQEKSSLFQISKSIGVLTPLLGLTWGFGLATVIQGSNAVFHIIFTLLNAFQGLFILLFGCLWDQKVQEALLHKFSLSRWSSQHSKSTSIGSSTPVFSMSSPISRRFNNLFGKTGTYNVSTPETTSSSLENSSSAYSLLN
# UniProt E9PUN2: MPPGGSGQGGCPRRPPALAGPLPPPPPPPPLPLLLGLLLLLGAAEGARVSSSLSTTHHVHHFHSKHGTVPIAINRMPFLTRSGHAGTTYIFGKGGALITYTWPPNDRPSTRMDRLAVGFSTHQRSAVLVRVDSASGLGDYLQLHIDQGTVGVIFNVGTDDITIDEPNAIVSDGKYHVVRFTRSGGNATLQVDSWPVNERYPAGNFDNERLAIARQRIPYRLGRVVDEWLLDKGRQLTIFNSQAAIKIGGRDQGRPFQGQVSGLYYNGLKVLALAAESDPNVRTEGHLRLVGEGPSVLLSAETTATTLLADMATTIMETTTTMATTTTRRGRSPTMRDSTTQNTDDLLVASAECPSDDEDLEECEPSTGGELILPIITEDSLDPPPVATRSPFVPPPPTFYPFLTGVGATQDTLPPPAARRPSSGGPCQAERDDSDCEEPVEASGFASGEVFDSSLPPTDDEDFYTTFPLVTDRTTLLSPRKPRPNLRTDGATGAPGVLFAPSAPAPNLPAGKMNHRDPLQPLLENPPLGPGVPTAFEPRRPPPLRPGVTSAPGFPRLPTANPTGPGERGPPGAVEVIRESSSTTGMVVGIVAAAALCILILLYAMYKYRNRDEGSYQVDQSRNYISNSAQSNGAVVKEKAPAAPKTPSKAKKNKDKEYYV
# UniProt O35473: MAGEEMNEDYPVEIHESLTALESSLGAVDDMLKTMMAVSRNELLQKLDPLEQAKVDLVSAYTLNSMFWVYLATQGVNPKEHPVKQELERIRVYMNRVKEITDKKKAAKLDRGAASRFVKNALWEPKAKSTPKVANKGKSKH
# UniProt B2RY56, whole entry: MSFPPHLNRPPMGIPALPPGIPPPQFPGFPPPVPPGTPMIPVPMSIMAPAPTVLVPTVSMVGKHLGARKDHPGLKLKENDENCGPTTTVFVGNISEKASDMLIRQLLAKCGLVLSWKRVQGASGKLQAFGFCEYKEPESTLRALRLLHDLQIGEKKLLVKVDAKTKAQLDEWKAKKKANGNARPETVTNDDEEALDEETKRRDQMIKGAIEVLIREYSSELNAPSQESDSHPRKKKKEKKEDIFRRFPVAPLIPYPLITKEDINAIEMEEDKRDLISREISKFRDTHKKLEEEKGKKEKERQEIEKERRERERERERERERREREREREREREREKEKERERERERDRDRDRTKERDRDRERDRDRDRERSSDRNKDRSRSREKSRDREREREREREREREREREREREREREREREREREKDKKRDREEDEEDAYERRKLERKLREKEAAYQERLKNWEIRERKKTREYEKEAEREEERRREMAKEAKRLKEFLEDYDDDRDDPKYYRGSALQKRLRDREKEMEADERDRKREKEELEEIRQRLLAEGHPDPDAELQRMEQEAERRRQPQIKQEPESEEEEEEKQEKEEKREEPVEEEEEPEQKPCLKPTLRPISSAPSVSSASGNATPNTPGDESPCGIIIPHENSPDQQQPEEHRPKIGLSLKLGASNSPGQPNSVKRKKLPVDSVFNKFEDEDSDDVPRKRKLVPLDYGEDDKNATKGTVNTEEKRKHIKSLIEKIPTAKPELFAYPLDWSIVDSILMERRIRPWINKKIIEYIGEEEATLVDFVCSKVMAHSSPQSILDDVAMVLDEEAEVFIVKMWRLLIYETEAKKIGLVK
# Compound: CN[C@@H]1C[C@H]2O[C@@](C)([C@@H]1OC)n1c3ccccc3c3c4c(c5c6ccccc6n2c5c31)C(=O)NC4 [staurosporine]
# Experiment: log2 fold change of tryptic peptide abundance, ligand vs vehicle (limited proteolysis) (log2 ratio); higher = more trypsin-susceptible (destabilized)
# Conditions: ligand concentration: 20 uM; sample: mouse liver crude lysate; replicate design: treated separately
row,Target,log2 fold change
1,"UniProt O35457 (peptide sequence: EGHGRPIELYSNLHQR, peptide start residue: 341)",0.0553
2,"UniProt E2JF22 (peptide sequence: SKDVIQDPPEDLKPR, peptide start residue: 1867)",-0.12
3,"UniProt E9PZJ8 (peptide sequence: KAGEDGEVSGEGVLPFDPK, peptide start residue: 353)",-0.397
4,"UniProt G5E8B9 (peptide sequence: CGECGMVFPR, peptide start residue: 568)",0.212
5,"UniProt O08908 (peptide sequence: KINEWLGIK, peptide start residue: 584)",0.164
6,"UniProt O08705 (peptide sequence: AAATEDATPAALEK, peptide start residue: 323)",-0.0615
7,"UniProt O09012 (peptide sequence: YNLGISCINLGAHR, peptide start residue: 560)",-0.14
8,"UniProt E9Q557 (peptide sequence: ENLSWQKLESEK, peptide start residue: 1163)",0.758
9,"UniProt G5E8Q8 (peptide sequence: SALNSWEK, peptide start residue: 805)",0.188
10,"UniProt E9PYL2 (peptide sequence: VGVHLLEPATR, peptide start residue: 816)",0.549
11,"UniProt B7ZNG0 (peptide sequence: FHFVDLAGSER, peptide start residue: 270)",0.0211
12,"UniProt B2RY71 (peptide sequence: EIREQEK, peptide start residue: 858)",-0.00642
13,"UniProt O08583 (peptide sequence: PAPYSRPK, peptide start residue: 73)",-0.691
14,"UniProt O35368 (peptide sequence: KMQEDYDR, peptide start residue: 37)",-0.261
15,"UniProt D3YUB6 (peptide sequence: STLGDSVKR, peptide start residue: 1011)",0.314
16,"UniProt O08586 (peptide sequence: NHLDYRPVALLFHK, peptide start residue: 184)",0.206
17,"UniProt E9PUN2 (peptide sequence: VVDEWLLDKGR, peptide start residue: 1274)",-0.0611
18,"UniProt O08992 (peptide sequence: SLMDHTIPEV, peptide start residue: 290)",0.0392

# Part of the list above, as tab-separated lines.
row	Target	log2 fold change
11	UniProt B7ZNG0 (peptide sequence: FHFVDLAGSER, peptide start residue: 270)	0.0211
12	UniProt B2RY71 (peptide sequence: EIREQEK, peptide start residue: 858)	-0.00642

# (list continues)

row,Target,log2 fold change
1,"UniProt O35177 (peptide sequence: QVAAQDIR, peptide start residue: 765)",0.26
2,"UniProt G5E8Z2 (peptide sequence: DANLTALAAIGPR, peptide start residue: 774)",-0.0395
3,"UniProt D3Z7P3 (peptide sequence: EMVAAGDNK, peptide start residue: 127)",0.13
4,"UniProt D3YXK1 (peptide sequence: IYEHHIK, peptide start residue: 496)",-0.677
5,"UniProt F7BJB9 (peptide sequence: LGVHSSILNAK, peptide start residue: 548)",0.7
6,"UniProt D3YXJ0 (peptide sequence: IVNSDEHAVVISSAK, peptide start residue: 496)",0.327
7,"UniProt O35149 (peptide sequence: MDPCDNCSK, peptide start residue: 92)",0.19
8,"UniProt G3X9K3 (peptide sequence: IWEVIGDHFNK, peptide start residue: 1184)",0.294
9,"UniProt O35345 (peptide sequence: IQAVIDSGVCRR, peptide start residue: 287)",-0.427
10,"UniProt E9QAM5 (peptide sequence: YQVCHYYRPGLGCR, peptide start residue: 88)",0.506
11,"UniProt B5X0G2 (peptide sequence: EKIEEHGNFR, peptide start residue: 48)",0.664
12,"UniProt D7PDD4 (peptide sequence: GTPTVLQHFSGR, peptide start residue: 70)",-0.514
13,"UniProt D3YZU1 (peptide sequence: LYSAVPGR, peptide start residue: 466)",0.226
14,"UniProt O35473 (peptide sequence: LDPLEQAK, peptide start residue: 47)",-0.187
15,"UniProt E9Q349 (peptide sequence: QLQALNPEAGGGK, peptide start residue: 174)",0.473
16,"UniProt O35126 (peptide sequence: LALAAGPALRPDMSYAER, peptide start residue: 988)",0.274
17,"UniProt B2RY56 (peptide sequence: CGLVLSWKR, peptide start residue: 110)",0.141

# Source: the supplement of paper PMC12819154, “High-throughput peptide-centric local stability assay extends protein–ligand identification to membrane proteins, tissues and bacteria” (Nature Structural & Molecular Biology, 2025)
